These are yes or no findings as the source states them, for the method shown. In cells and extracts the contact can be indirect. Here binding means that the protein was enriched with, or labelled near, the bait; the list need not be complete.
B1: HES1 (protein, UniProt P35428 1-282)
chain: MPADIMEKNSSSPVAATPASVNTTPDKPKTASEHRKSSKPIMEKRRRARINESLSQLKTLILDALKKDSSRHSKLEKADILEMTVKHLRNLQRAQMTAALSTDPSVLGKYRAGFSECMNEVTRFLSTCEGVNTEVRTRLLGHLANCMTQINAMTYPGQAHPALQAPPPPPPSGPAGPQHAPFAPPPPPLVPIPGGAAPPPGSAPCKLGSQAGEAAKVFGGFQVVPAPDGQFAFLIPNGAFAHSGPVIPVYTSNSGTSVGPNAVSPSSGSSLTSDSMWRPWRN

Protein sequences, listed by entry. Tags and fused reporters are not part of them.
UniProt O35253: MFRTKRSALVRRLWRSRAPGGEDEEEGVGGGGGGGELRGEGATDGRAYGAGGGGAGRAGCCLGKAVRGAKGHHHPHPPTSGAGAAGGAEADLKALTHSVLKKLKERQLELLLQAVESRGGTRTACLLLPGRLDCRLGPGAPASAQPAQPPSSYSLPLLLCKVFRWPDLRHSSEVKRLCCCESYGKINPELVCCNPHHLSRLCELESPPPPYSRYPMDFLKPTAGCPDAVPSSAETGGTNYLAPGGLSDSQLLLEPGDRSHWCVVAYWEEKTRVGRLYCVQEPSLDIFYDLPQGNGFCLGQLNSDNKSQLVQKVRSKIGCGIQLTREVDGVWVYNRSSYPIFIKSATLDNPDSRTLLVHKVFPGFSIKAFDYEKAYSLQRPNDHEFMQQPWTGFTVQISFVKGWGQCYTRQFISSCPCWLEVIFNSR
UniProt O35185: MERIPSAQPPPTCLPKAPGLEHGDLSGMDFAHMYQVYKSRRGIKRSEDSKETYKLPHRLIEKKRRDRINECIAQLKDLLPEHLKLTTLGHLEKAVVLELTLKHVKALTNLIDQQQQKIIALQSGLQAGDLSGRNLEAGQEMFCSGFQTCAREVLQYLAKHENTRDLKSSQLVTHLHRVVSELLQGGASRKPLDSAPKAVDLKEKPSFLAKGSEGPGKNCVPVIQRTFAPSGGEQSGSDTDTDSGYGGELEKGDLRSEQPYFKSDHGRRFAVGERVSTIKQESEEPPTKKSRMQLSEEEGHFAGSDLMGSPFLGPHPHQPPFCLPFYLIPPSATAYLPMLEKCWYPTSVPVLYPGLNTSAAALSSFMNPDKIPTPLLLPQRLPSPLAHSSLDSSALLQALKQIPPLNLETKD
UniProt P15307: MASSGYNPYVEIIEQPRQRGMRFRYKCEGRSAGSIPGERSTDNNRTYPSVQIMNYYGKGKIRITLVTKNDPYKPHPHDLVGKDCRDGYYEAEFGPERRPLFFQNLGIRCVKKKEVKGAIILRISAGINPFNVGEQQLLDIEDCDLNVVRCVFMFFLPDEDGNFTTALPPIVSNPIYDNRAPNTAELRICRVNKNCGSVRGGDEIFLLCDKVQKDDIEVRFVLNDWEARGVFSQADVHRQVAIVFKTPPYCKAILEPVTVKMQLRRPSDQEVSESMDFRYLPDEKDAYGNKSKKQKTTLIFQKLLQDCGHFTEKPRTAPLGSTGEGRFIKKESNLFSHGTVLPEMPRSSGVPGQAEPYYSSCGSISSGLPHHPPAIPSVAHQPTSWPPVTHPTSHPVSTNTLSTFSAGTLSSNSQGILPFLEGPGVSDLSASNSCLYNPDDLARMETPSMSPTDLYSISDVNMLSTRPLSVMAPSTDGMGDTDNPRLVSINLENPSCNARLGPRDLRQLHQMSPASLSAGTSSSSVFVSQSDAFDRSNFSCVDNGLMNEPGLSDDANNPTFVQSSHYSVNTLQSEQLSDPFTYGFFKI

What follows are molecules tested against Microtubule actin crosslinking factor 1 (MACF1) (mouse (endogenous in MC3T3-E1)) (UniProt Q9QXZ0) (assay: affinity purification with mass spectrometry; anti-MACF1 antibody (Abcam ab117418) immunoprecipitation from MC3T3-E1 whole cell lysate in RIPA buffer, Protein A+G agarose; products labelled with iTRAQ and analysed by LC-MS/MS).
“SMAD family member 7 (SMAD7) (from UniProt O35253 1-426)” was tested, and the binding was “binds”.
BHLHE40 (from UniProt O35185 1-411) was tested, and the binding was “binds”.
In the case of REL (from UniProt P15307 1-587), the binding is reported as “binds”.
For B1, the binding was “binds”.

Source: PMC7140458
